PubChem BioAssay AID1224830, NIAID | 2016
The whole screen tested about 18,000 reagents; this is a part drawn at random. About 2,900 of them (16%) were called active. 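Calls are made per well; low scores hint the gene aids the LPS response, high scores that it dampens it.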 Repeated entries: four replicate wells of each siRNA pool.

- Aim: 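Host factors that control LPS-induced TNF expression in human macrophages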 (primary screen)
- Cells: human THP-1 monocytic leukaemia cells, TNF dual-luciferase reporter clone, PMA-differentiated to macrophage-like cells
- Reagents: siRNA pool against human genes, 50 nM
- Timing: LPS for 4 h, given about 3 days after siRNA transfection
- Challenge: bacterial LPS (TLR4 ligand), 10 ng/ml
- Measured: 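TNF firefly reporter luminescence divided by renilla, normalised to the plate median, then turned into a robust z-score for each replicate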
- Reading the numbers: TNF reporter robust z-score: higher = stronger TNF reporter response to LPS
- Rule for the call: 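a well is active when its z-score exceeds 2.8 or falls below -1.5; control wells carry no call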

{"target": "PYGL (GeneID 5836)", "TNF reporter robust z-score": 0.56, "outcome": "inactive"}
{"target": "PYGL (GeneID 5836)", "TNF reporter robust z-score": 1.02, "outcome": "inactive"}
{"target": "PYGL (GeneID 5836)", "TNF reporter robust z-score": 1.25, "outcome": "inactive"}
{"target": "PYGL (GeneID 5836)", "TNF reporter robust z-score": 1.76, "outcome": "inactive"}
{"target": "ARL15 (GeneID 54622)", "TNF reporter robust z-score": -1.06, "outcome": "inactive"}
{"target": "ARL15 (GeneID 54622)", "TNF reporter robust z-score": -0.08, "outcome": "inactive"}
{"target": "ARL15 (GeneID 54622)", "TNF reporter robust z-score": -0.89, "outcome": "inactive"}
{"target": "ARL15 (GeneID 54622)", "TNF reporter robust z-score": -0.27, "outcome": "inactive"}
{"target": "LRRK2 (GeneID 120892)", "TNF reporter robust z-score": 0.23, "outcome": "inactive"}
{"target": "LRRK2 (GeneID 120892)", "TNF reporter robust z-score": 1.17, "outcome": "inactive"}
{"target": "LRRK2 (GeneID 120892)", "TNF reporter robust z-score": 0.4, "outcome": "inactive"}
{"target": "LRRK2 (GeneID 120892)", "TNF reporter robust z-score": 0.94, "outcome": "inactive"}
{"target": "PFN3 (GeneID 345456)", "TNF reporter robust z-score": -1.82, "outcome": "active"}
{"target": "PFN3 (GeneID 345456)", "TNF reporter robust z-score": -1.17, "outcome": "inactive"}
{"target": "PFN3 (GeneID 345456)", "TNF reporter robust z-score": -1.15, "outcome": "inactive"}
{"target": "PFN3 (GeneID 345456)", "TNF reporter robust z-score": -1.24, "outcome": "inactive"}
{"target": "HEXIM1 (GeneID 10614)", "TNF reporter robust z-score": -0.38, "outcome": "inactive"}
{"target": "HEXIM1 (GeneID 10614)", "TNF reporter robust z-score": -1.06, "outcome": "inactive"}
{"target": "HEXIM1 (GeneID 10614)", "TNF reporter robust z-score": -1.19, "outcome": "inactive"}
{"target": "HEXIM1 (GeneID 10614)", "TNF reporter robust z-score": -0.72, "outcome": "inactive"}

Entries listed so far marked active, once more:
{"target": "PFN3 (GeneID 345456)", "TNF reporter robust z-score": -1.82, "outcome": "active"}
